Source: the supplement of paper PMC10849652
Some of the results follow.

Protein sequences, listed by entry. Tags and fused reporters are not part of them. Lines headed by an entry give the natural chain unless they say otherwise; changes in a name come on top.
UniProt Q8IZQ5, whole entry, looked up: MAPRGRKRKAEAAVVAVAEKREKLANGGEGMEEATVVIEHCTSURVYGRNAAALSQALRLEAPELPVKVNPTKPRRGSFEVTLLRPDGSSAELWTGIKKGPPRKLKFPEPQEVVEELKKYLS
UniProt Q8IW75: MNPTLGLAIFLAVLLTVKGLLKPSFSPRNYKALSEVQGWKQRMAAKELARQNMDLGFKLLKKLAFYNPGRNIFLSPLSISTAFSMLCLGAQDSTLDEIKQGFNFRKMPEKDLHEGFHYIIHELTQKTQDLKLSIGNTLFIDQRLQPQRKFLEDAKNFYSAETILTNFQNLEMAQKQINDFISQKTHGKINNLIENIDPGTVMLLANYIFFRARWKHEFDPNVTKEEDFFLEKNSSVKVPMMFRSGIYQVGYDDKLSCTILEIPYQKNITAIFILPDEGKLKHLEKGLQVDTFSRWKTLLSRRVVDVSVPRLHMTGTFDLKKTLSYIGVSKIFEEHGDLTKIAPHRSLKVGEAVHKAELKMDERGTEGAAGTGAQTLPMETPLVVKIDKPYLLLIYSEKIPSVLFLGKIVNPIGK
UniProt Q9NTG7: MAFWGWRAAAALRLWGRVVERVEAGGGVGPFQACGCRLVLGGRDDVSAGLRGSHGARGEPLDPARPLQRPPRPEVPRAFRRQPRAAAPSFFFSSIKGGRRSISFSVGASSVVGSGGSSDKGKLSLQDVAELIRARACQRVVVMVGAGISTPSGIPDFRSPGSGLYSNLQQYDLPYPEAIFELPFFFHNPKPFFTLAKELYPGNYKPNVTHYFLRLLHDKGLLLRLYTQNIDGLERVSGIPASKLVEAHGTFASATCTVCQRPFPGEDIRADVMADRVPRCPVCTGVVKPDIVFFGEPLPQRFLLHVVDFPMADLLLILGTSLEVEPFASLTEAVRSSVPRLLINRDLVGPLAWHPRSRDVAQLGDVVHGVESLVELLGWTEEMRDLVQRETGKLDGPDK
UniProt P55822: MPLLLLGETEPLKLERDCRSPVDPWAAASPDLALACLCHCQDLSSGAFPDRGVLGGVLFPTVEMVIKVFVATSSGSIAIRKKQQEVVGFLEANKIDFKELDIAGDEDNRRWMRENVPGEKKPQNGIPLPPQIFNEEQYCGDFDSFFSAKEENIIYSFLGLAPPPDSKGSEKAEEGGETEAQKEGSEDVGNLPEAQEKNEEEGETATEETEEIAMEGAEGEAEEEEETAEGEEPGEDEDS
UniProt Q6PI26: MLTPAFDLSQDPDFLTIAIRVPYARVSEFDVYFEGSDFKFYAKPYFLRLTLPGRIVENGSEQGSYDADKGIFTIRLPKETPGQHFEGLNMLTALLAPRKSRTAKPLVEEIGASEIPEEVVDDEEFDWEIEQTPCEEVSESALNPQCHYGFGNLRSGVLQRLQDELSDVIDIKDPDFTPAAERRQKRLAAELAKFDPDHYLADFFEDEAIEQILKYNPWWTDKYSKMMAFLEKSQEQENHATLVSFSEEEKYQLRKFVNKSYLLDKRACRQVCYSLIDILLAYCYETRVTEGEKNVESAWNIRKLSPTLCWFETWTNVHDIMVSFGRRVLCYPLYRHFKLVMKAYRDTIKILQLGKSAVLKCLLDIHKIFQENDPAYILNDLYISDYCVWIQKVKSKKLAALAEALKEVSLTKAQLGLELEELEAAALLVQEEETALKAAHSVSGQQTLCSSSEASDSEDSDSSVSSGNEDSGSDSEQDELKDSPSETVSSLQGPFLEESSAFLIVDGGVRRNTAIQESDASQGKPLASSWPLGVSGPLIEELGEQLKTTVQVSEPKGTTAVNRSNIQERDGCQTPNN
UniProt O75563, whole entry, looked up: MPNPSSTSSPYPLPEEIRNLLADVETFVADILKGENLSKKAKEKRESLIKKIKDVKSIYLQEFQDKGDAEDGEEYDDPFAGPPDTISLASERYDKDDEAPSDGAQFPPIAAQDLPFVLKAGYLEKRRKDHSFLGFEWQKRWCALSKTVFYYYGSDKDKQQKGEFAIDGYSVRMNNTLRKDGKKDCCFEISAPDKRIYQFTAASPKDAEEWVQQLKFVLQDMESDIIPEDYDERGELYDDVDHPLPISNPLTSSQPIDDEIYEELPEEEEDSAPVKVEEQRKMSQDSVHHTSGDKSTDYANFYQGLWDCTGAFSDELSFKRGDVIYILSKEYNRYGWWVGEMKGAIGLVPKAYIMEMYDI
UniProt Q9ULL8: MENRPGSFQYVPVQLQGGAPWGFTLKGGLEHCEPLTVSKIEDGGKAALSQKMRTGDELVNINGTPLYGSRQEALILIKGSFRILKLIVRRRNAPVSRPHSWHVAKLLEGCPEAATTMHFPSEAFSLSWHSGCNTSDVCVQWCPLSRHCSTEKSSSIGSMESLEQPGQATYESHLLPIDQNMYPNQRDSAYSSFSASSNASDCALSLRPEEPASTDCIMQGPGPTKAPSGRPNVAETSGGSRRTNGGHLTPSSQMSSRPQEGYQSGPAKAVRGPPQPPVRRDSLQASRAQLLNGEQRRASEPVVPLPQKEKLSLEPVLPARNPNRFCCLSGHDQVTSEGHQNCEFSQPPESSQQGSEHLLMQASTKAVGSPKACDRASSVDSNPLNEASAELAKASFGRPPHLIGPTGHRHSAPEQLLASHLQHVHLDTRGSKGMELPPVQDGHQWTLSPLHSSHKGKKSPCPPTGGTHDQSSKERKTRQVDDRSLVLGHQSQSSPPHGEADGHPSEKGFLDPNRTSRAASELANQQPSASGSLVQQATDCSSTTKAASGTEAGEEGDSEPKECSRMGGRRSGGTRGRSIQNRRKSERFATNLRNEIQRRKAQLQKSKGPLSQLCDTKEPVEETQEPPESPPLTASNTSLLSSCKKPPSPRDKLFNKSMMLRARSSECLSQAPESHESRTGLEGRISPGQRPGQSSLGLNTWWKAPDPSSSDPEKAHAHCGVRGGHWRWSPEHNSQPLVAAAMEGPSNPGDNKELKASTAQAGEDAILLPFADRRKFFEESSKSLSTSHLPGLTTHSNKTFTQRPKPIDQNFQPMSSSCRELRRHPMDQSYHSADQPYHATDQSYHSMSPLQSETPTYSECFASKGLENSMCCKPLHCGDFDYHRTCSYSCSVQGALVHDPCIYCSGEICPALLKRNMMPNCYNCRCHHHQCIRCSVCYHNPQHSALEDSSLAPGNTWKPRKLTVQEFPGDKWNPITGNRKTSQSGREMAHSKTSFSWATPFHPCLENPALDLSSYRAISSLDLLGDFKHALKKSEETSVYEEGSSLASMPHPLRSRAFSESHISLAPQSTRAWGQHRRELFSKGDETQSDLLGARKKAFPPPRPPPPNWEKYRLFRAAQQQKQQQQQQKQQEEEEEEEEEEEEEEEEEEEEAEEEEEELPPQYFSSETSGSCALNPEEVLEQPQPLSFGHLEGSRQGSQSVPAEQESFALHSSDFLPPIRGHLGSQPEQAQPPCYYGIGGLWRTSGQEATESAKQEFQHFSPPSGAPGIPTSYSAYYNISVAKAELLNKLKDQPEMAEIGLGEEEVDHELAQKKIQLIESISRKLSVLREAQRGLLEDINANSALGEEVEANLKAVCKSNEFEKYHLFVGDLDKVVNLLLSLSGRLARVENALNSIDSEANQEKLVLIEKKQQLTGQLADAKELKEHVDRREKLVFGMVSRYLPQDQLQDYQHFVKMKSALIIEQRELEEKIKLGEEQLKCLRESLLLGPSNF
UniProt O75635: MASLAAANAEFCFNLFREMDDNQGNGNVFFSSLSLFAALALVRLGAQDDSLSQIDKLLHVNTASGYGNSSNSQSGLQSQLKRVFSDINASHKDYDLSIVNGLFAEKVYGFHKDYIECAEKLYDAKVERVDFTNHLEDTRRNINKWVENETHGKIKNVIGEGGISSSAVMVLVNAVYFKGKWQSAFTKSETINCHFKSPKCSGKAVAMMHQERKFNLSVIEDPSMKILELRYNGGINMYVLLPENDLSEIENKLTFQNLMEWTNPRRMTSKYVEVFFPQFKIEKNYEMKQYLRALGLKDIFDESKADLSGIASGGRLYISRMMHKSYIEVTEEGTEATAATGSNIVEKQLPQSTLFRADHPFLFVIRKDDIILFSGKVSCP
UniProt P62341, whole entry, looked up: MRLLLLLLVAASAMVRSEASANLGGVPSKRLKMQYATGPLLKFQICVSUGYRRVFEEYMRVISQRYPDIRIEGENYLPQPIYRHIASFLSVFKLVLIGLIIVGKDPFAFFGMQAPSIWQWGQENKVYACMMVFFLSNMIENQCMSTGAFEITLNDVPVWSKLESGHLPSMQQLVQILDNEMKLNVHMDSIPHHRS
UniProt P60059: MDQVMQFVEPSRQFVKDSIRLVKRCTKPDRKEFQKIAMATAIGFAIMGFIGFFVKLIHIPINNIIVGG
UniProt Q8TD22: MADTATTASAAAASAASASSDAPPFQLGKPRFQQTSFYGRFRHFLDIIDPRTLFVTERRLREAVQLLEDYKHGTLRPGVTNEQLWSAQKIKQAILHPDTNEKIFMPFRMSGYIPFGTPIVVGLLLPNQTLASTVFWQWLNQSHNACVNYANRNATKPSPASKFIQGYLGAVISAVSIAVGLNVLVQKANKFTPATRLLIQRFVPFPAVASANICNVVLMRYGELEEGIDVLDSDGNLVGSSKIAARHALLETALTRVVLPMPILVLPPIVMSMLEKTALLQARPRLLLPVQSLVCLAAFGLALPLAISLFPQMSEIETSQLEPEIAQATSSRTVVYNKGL
UniProt Q9NR46: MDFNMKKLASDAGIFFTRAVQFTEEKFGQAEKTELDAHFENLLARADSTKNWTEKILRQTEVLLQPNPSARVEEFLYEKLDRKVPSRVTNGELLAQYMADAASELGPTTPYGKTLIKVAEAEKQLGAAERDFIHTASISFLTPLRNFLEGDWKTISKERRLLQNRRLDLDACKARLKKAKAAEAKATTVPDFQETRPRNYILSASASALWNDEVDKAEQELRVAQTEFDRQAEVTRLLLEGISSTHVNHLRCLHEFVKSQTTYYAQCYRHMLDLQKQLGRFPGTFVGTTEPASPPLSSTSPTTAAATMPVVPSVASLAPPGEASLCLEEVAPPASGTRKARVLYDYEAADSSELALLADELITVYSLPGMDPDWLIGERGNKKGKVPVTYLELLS
UniProt Q9BWJ5: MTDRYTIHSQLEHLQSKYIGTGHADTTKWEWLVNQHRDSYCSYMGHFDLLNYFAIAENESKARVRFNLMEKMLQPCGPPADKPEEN
UniProt Q8NC51: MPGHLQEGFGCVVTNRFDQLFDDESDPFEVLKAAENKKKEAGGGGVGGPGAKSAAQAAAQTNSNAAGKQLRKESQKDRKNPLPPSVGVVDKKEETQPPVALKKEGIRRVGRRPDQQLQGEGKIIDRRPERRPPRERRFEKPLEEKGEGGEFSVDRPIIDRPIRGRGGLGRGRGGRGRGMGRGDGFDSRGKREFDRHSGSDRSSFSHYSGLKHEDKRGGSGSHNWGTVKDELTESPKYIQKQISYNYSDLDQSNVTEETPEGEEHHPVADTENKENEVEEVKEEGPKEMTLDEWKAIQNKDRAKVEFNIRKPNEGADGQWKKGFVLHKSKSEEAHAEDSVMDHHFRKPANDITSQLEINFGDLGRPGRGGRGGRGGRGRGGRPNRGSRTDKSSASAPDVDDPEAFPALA
UniProt Q9Y6D0, whole entry, looked up: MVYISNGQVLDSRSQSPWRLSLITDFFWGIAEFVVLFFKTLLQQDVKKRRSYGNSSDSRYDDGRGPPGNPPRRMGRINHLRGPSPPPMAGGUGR
UniProt Q13530: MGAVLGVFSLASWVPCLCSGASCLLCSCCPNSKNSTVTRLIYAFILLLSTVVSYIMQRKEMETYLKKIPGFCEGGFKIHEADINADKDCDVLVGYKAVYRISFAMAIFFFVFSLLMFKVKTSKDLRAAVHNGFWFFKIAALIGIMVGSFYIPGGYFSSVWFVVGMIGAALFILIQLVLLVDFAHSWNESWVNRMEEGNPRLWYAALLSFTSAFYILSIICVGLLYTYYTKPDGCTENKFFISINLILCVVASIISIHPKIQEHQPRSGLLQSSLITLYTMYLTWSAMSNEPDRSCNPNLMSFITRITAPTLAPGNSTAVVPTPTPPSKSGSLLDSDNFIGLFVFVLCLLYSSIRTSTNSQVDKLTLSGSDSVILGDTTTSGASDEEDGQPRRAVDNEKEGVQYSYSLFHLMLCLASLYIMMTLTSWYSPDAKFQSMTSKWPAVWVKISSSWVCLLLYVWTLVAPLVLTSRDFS
UniProt Q9NP31, whole entry, looked up: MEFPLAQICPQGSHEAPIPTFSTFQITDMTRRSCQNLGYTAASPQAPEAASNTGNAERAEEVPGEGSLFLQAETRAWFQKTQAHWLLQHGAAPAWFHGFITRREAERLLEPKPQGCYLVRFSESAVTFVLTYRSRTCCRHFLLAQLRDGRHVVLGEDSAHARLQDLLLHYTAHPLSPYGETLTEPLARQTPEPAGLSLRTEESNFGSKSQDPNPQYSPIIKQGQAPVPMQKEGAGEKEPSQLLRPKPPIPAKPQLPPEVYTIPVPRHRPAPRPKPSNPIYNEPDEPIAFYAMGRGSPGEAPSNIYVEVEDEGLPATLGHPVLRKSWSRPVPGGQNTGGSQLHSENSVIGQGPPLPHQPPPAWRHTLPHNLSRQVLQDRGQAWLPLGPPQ

Experiments:
Experiment in all cases: log2 fold change, soluble protein after heating vs DMSO (PISA); higher = thermal stabilisation; K562 cells, 10 uM, 30 min; active = over 0.2 and 3.5 SD of the protein, either way, in both replicates (recomputed)
saracatinib = compound: CN1CCN(CCOc2cc(OC3CCOCC3)c3c(Nc4c(Cl)ccc5c4OCO5)ncnc3c2)CC1 [saracatinib]
How it was run: (§1)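 Values are thermal stability changes relative to control samples and are taken from duplicates. They are stated as log2 fold changes. Before quantification by TMTpro 16plex LC-MS/MS with equalised channel sums, K562 cells at 2×10^6 cells/mL were treated with 10 μM compound for 30 min, heated in aliquots for 3 min across 48°C-58°C, pooled, extracted in PBS with 0.5% NP-40 at 4°C, and centrifuged at 21,000xg for 90 min to give the soluble supernatant.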

sotrastaurin = compound: CN1CCN(c2nc(C3=C(c4c[nH]c5ccccc45)C(=O)NC3=O)c3ccccc3n2)CC1 [sotrastaurin]
How it was run: as §1

Tubastatin A = compound: CN1CCc2c(c3ccccc3n2Cc2ccc(C(=O)NO)cc2)C1 [Tubastatin A]
How it was run: as §1

[1] = compound: CNC(=O)C1=CC=CC=C1NC2=NC(=NC=C2Cl)NC3=C(C=C(C=C3)N4CCOCC4)OC
How it was run: as §1

defactinib = compound: CNC(=O)c1ccc(Nc2ncc(C(F)(F)F)c(NCc3nccnc3N(C)S(C)(=O)=O)n2)cc1 [defactinib]
How it was run: as §1

rucaparib = compound: CNCc1ccc(-c2[nH]c3cc(F)cc4c3c2CCNC4=O)cc1 [rucaparib]
How it was run: as §1

[2] = compound: CNc1nc(-c2ccc3c(N)n[nH]c3c2)cc(N2C[C@@H](C(=O)NC3CCCCC3)CC[C@H]2C)n1
How it was run: as §1

encorafenib = compound: COC(=O)N[C@@H](C)CNc1nccc(-c2cn(C(C)C)nc2-c2cc(Cl)cc(NS(C)(=O)=O)c2F)n1 [encorafenib]
How it was run: as §1

[3] = compound: COC(=O)[C@H](CCSC)NC(=O)C1=C(C=C(C=C1)NC[C@H](CS)N)C2=CC=CC=C2
How it was run: as §1

[4] = compound: COC1=CC=C(C=C1)CN2C=CC3=C2C=C(C=C3)C(=O)NO
How it was run: as §1

filanesib = compound: CON(C)C(=O)N1N=C(c2cc(F)ccc2F)S[C@@]1(CCCN)c1ccccc1 [filanesib]
How it was run: as §1

zotarolimus = compound: CO[C@H]1C[C@@H]2CC[C@@H](C)[C@@](O)(O2)C(=O)C(=O)N2CCCC[C@H]2C(=O)O[C@H]([C@H](C)C[C@@H]2CC[C@H](n3cnnn3)[C@H](OC)C2)CC(=O)[C@H](C)/C=C(\C)[C@@H](O)[C@@H](OC)C(=O)[C@H](C)C[C@H](C)/C=C/C=C/C=C/1C [zotarolimus]
How it was run: as §1

idasanutlin = compound: COc1cc(C(=O)O)ccc1NC(=O)[C@@H]1N[C@@H](CC(C)(C)C)[C@](C#N)(c2ccc(Cl)cc2F)[C@H]1c1cccc(Cl)c1F [idasanutlin]
How it was run: as §1

alisertib = compound: COc1cc(Nc2ncc3c(n2)-c2ccc(Cl)cc2C(c2c(F)cccc2OC)=NC3)ccc1C(=O)O [alisertib]
How it was run: as §1

[5] = compound: COc1cc2nc(-c3cc(F)ccc3O)nc(N[C@@H]3CNC[C@H]3C(C)(C)O)c2cc1OC
How it was run: as §1

gefitinib = compound: COc1cc2ncnc(Nc3ccc(F)c(Cl)c3)c2cc1OCCCN1CCOCC1 [gefitinib]
How it was run: as §1

[6] = compound: COc1cccc2cc(-c3nc([C@H]4CC[C@H](C(=O)O)CC4)n4ncnc(N)c34)[nH]c12
How it was run: as §1

lapatinib = compound: CS(=O)(=O)CCNCc1ccc(-c2ccc3ncnc(Nc4ccc(OCc5cccc(F)c5)c(Cl)c4)c3c2)o1 [lapatinib]
How it was run: as §1

pictilisib = compound: CS(=O)(=O)N1CCN(Cc2cc3nc(-c4cccc5[nH]ncc45)nc(N4CCOCC4)c3s2)CC1 [pictilisib]
How it was run: as §1

alvocidib = compound: CN1CC[C@H](c2c(O)cc(O)c3c(=O)cc(-c4ccccc4Cl)oc23)[C@H](O)C1 [alvocidib]
How it was run: as §1

Measured: log2 fold change

SELENOH (UniProt Q8IZQ5)
inactive: saracatinib 0.124 | sotrastaurin -0.171 | Tubastatin A 0.032 | [1] -0.063 | defactinib -0.026 | rucaparib -0.011 | [2] 0.022 | encorafenib 0.011 | [3] -0.038 | [4] 0.204 | filanesib -0.077 | zotarolimus 0.035 | idasanutlin 0.02 | alisertib -0.27 | [5] -0.114 | gefitinib -0.028 | [6] -0.038 | lapatinib 0.08 | pictilisib -0.074

SERPINA12 (UniProt Q8IW75)
inactive: saracatinib -0.356 | sotrastaurin 0.183 | Tubastatin A -0.086 | defactinib 0.022 | rucaparib -0.123 | [2] 0.286 | encorafenib -0.231 | [3] -0.053 | filanesib 0.092 | alisertib 1.2 | gefitinib 0.236 | [6] 0.08

SF1 (UniProt H7C0N4)
inactive: saracatinib 0.165 | alvocidib 0.013 | Tubastatin A -0.035 | defactinib -0.056 | rucaparib 0.047 | [2] -0.018 | encorafenib -0.044 | [3] -0.039 | [4] 0.163 | zotarolimus 0.076 | idasanutlin 0.076 | alisertib -0.028 | [5] -0.043 | gefitinib -0.179 | [6] 0.106 | lapatinib 0.04

SIRT3 (UniProt Q9NTG7)
inactive: saracatinib -0.075 | [1] 0.081 | defactinib -0.019 | rucaparib -0.048 | [2] 0.322 | encorafenib -0.068 | [3] -0.009 | [4] -0.063 | idasanutlin 0.416 | alisertib -0.079 | [6] 0.075 | pictilisib 0.126

SIRT2 (UniProt Q8IXJ6)
inactive: saracatinib 0.031 | sotrastaurin 0.136 | Tubastatin A -0.015 | [1] -0.038 | defactinib -0.015 | rucaparib -0.033 | [2] 0.181 | encorafenib 0.014 | [3] 0.025 | [4] 0.083 | filanesib -0.02 | zotarolimus -0.029 | idasanutlin 0.016 | alisertib 0.036 | [5] -0.012 | gefitinib 0.069 | [6] 0.017 | lapatinib 0.065 | pictilisib 0.168

SH3BGR (UniProt P55822)
inactive: saracatinib -0.076 | alvocidib -0.033 | [1] 0.129 | rucaparib 0.076 | [2] -0.028 | encorafenib -0.01 | zotarolimus 0.176 | idasanutlin 0.274 | alisertib 0.011 | [5] 0.028 | gefitinib 0.06 | [6] 0.036 | lapatinib 0.017 | pictilisib -0.18

SETMAR (UniProt Q53H47)
inactive: saracatinib -0.007 | sotrastaurin -0.132 | Tubastatin A -0.402 | [1] 0.006 | defactinib -0.026 | rucaparib -0.004 | [2] 0.005 | encorafenib 0.198 | [3] -0.084 | [4] -0.135 | filanesib -0.065 | zotarolimus 0.048 | idasanutlin -0.037 | alisertib 0.014 | [5] -0.002 | gefitinib -0.044 | [6] 0.004 | lapatinib 0.018 | pictilisib -0.009

SEPTIN5 (UniProt G3XAH0)
inactive: saracatinib 0.045 | sotrastaurin 0.023 | Tubastatin A -0.038 | [1] 0.042 | defactinib -0.023 | [2] 0.032 | [3] 0.028 | filanesib -0.044 | zotarolimus 0.045 | idasanutlin 0.027 | alisertib 0.003 | [5] 0.011 | gefitinib -0.057 | [6] 0.036 | lapatinib 0.094 | pictilisib 0.051

SHQ1 (UniProt Q6PI26)
inactive: saracatinib -0.105 | defactinib 0.019 | [2] 0.092 | [3] 0.162

SKAP2 (UniProt O75563)
inactive: saracatinib -0.037 | Tubastatin A 0.043 | [1] -0.078 | [2] -0.039 | [4] -0.11 | idasanutlin -0.087 | alisertib 0.026 | [5] 0.266 | [6] -0.017 | lapatinib -0.114

SHROOM4 (UniProt Q9ULL8)
inactive: saracatinib -0.067 | alvocidib 0.475 | defactinib 0.504 | [2] -0.116 | [3] 0.104 | zotarolimus -0.098 | idasanutlin 0.181 | alisertib 0.113 | [5] 0.164 | [6] -0.086 | lapatinib 0.062 | pictilisib -0.078

SERPINB7 (UniProt O75635)
inactive: saracatinib -0.053 | Tubastatin A 0.191 | defactinib -0.017 | rucaparib -0.152 | [2] -0.058 | encorafenib -0.137 | [3] 0.056 | idasanutlin -0.016 | alisertib -0.005 | [6] 0.141 | pictilisib -0.226

SELENOT (UniProt P62341)
inactive: saracatinib 0.107 | sotrastaurin -0.041 | Tubastatin A 0.041 | [1] 0.007 | defactinib -0.092 | rucaparib 0.023 | [2] 0.02 | encorafenib -0.016 | [3] 0.002 | [4] -0.022 | filanesib -0.077 | idasanutlin 0.086 | alisertib 0.01 | [5] -0.101 | gefitinib -0.098 | [6] 0.023 | lapatinib -0.163 | pictilisib -0.026

SEC61G (UniProt P60059)
inactive: saracatinib -0.045 | sotrastaurin -0.002 | [1] 0.173 | rucaparib -0.332 | [2] 0.068 | encorafenib 0.158 | [4] -0.076 | filanesib 0.059 | alisertib 0.09 | gefitinib -0.093 | [6] 0.052

SFXN5 (UniProt Q8TD22)
inactive: saracatinib 0.106 | sotrastaurin -0.014 | Tubastatin A -0.053 | [1] 0.019 | defactinib 0.017 | rucaparib -0.043 | [2] -0.038 | encorafenib -0.053 | [3] 0.045 | [4] -0.104 | filanesib -0.007 | zotarolimus 0.025 | idasanutlin -0.172 | alisertib 0.027 | [5] -0.019 | gefitinib -0.013 | [6] 0.035 | lapatinib 0.017 | pictilisib 0.061

SH3GLB2 (UniProt Q9NR46)
inactive: saracatinib -0.059 | sotrastaurin -0.08 | Tubastatin A 0.024 | [1] -0.048 | defactinib -0.148 | rucaparib 0.042 | [2] -0.02 | encorafenib 0.029 | [3] -0.086 | [4] 0.016 | filanesib 0.085 | zotarolimus 0.052 | idasanutlin 0.061 | alisertib -0.011 | [5] -0.034 | gefitinib -0.004 | [6] -0.018 | lapatinib -0.04 | pictilisib 0.025

SF3B5 (UniProt Q9BWJ5)
inactive: saracatinib -0.382 | sotrastaurin 0.055 | Tubastatin A 0.048 | [1] 0.023 | defactinib -0.039 | rucaparib 0.086 | [2] -0.015 | encorafenib -0.025 | [3] 0.061 | [4] 0.19 | filanesib 0.2 | idasanutlin 0.085 | alisertib -0.122 | [5] -0.026 | gefitinib 0.027 | [6] 0.044 | lapatinib -0.051 | pictilisib -0.069

SERBP1 isoform 3 (UniProt Q8NC51)
inactive: saracatinib 0.06 | Tubastatin A -0.006 | [1] -0.083 | rucaparib 0.132 | [2] -0.12 | encorafenib 0.03 | idasanutlin 0.073 | alisertib -0.153 | [5] -0.081 | gefitinib 0.101 | [6] -0.038 | lapatinib 0.13 | pictilisib -0.201

Looked up one by one from the list above, two records:
SELENOT (UniProt P62341)
inactive: saracatinib 0.107 | sotrastaurin -0.041 | Tubastatin A 0.041 | [1] 0.007 | defactinib -0.092 | rucaparib 0.023 | [2] 0.02 | encorafenib -0.016 | [3] 0.002 | [4] -0.022 | filanesib -0.077 | idasanutlin 0.086 | alisertib 0.01 | [5] -0.101 | gefitinib -0.098 | [6] 0.023 | lapatinib -0.163 | pictilisib -0.026

SETMAR (UniProt Q53H47)
inactive: saracatinib -0.007 | sotrastaurin -0.132 | Tubastatin A -0.402 | [1] 0.006 | defactinib -0.026 | rucaparib -0.004 | [2] 0.005 | encorafenib 0.198 | [3] -0.084 | [4] -0.135 | filanesib -0.065 | zotarolimus 0.048 | idasanutlin -0.037 | alisertib 0.014 | [5] -0.002 | gefitinib -0.044 | [6] 0.004 | lapatinib 0.018 | pictilisib -0.009

Following part

SELENOK (UniProt Q9Y6D0)
inactive: sotrastaurin -0.007 | alvocidib 0.033 | Tubastatin A 0.036 | [1] -0.04 | defactinib -0.043 | rucaparib -0.169 | encorafenib 0.057 | [3] -0.094 | filanesib -0.257 | zotarolimus 0.04 | idasanutlin 0.166 | alisertib 0.2 | gefitinib -0.214 | [6] 0.086 | pictilisib 0.011

SIK3 (UniProt H0Y4E8)
inactive: saracatinib 0.027 | sotrastaurin 0.157 | Tubastatin A 0.064 | [1] -0.009 | defactinib -0.072 | rucaparib 0.023 | [2] -0.114 | encorafenib 0.056 | [3] 0.01 | [4] -0.015 | filanesib 0.085 | zotarolimus -0.073 | idasanutlin -0.065 | alisertib -0.018 | [5] 0.077 | gefitinib -0.026 | [6] 0.466 | lapatinib 0.036 | pictilisib -0.007

SERINC3 (UniProt Q13530)
inactive: saracatinib 0.002 | sotrastaurin 0.119 | Tubastatin A -0.06 | [1] -0.043 | defactinib -0.016 | rucaparib 0.006 | [2] -0.216 | encorafenib -0.017 | [3] -0.065 | [4] -0.015 | filanesib -0.222 | zotarolimus -0.062 | idasanutlin 0.136 | alisertib 0 | [5] -0.17 | gefitinib -0.069 | [6] 0.042 | lapatinib -0.181 | pictilisib 0.181

SH2D2A isoform 2 (UniProt Q9NP31)
inactive: saracatinib -0.033 | alvocidib -0.055 | [1] 0.021 | rucaparib -0.089 | [2] 0.015 | encorafenib -0.135 | [4] -0.253 | zotarolimus 0.195 | idasanutlin 0.167 | alisertib -0.025 | [5] -0.02 | gefitinib 0.02 | [6] 0.075 | lapatinib -0.281 | pictilisib 0.277
